Laboratory results as given in the supplement of paper PMC11732987, “Enantioselective OTUD7B fragment discovery through chemoproteomics screening and high-throughput optimisation” (Communications Chemistry, 2025).
The other results are listed elsewhere or left out. The data scatter; read single values as rough.

Chains of the proteins cited; added tags and fusions are not shown. Lines headed by an entry give the natural chain unless they say otherwise; changes in a name come on top. Residues count along the entry.
UniProt Q66K74: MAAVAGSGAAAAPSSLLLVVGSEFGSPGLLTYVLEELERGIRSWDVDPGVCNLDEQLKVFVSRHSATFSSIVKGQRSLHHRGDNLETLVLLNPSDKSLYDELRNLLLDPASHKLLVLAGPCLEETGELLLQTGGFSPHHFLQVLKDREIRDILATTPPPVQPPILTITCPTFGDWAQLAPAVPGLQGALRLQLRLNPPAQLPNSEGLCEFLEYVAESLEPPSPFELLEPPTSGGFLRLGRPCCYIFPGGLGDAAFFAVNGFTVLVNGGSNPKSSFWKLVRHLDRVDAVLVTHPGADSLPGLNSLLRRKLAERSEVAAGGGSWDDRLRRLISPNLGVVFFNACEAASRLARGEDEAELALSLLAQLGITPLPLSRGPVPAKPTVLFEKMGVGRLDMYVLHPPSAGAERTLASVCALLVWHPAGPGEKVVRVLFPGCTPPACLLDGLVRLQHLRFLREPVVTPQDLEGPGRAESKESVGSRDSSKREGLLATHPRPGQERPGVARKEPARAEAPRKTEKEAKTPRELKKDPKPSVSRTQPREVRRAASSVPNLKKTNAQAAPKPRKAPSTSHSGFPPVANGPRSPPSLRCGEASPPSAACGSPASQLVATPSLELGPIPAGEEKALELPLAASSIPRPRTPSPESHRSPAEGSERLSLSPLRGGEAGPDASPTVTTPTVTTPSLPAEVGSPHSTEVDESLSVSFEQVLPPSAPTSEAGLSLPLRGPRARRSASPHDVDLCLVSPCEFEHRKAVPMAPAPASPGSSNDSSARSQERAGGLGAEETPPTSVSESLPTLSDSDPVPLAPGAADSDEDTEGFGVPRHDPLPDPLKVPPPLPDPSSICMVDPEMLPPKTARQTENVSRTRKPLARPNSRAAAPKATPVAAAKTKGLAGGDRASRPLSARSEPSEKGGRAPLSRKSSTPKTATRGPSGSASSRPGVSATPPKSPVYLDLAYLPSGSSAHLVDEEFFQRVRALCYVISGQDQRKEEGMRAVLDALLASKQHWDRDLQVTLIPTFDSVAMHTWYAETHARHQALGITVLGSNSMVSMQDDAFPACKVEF
UniProt Q8N5G2, 298-320: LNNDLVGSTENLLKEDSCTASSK
UniProt Q9Y6R4: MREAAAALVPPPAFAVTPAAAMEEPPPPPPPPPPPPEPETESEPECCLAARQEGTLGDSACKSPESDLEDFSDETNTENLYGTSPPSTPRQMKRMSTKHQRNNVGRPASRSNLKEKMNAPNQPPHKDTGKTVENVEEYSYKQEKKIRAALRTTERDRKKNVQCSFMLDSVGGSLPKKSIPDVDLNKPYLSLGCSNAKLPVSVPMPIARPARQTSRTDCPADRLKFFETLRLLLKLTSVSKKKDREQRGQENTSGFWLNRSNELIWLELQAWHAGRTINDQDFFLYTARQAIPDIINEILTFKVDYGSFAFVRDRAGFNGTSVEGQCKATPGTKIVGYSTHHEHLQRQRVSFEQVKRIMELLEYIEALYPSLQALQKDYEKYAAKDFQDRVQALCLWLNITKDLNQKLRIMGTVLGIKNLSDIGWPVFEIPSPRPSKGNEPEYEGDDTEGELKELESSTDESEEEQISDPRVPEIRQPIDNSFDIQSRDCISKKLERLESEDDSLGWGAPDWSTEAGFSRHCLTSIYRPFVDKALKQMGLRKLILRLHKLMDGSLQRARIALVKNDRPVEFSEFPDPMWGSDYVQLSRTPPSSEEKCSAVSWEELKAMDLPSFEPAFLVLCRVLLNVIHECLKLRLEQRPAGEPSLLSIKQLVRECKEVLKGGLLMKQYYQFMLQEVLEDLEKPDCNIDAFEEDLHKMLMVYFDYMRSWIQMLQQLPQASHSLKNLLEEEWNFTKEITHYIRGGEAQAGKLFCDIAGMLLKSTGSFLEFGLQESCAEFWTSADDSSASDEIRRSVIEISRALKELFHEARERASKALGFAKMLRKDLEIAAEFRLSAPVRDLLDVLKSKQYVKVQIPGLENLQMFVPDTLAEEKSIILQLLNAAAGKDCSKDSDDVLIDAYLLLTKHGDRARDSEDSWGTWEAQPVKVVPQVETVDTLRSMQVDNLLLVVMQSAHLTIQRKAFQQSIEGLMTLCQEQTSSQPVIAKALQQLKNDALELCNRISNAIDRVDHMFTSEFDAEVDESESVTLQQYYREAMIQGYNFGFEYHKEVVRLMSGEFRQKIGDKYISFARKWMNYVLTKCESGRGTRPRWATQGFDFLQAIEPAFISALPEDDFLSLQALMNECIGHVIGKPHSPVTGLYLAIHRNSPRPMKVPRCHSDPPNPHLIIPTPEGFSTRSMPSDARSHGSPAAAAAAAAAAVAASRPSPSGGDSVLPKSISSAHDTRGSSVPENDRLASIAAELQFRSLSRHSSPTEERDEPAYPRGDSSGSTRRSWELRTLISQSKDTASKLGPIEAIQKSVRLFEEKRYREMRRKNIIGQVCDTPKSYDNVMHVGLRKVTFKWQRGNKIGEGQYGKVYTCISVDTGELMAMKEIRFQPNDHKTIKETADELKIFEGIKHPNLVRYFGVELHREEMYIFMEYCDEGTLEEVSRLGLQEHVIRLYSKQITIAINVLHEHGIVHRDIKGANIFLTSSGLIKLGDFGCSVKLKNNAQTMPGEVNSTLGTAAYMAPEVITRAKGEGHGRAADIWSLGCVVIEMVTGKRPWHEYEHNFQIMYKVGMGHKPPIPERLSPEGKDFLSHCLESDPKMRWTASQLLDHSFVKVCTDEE
UniProt Q13163: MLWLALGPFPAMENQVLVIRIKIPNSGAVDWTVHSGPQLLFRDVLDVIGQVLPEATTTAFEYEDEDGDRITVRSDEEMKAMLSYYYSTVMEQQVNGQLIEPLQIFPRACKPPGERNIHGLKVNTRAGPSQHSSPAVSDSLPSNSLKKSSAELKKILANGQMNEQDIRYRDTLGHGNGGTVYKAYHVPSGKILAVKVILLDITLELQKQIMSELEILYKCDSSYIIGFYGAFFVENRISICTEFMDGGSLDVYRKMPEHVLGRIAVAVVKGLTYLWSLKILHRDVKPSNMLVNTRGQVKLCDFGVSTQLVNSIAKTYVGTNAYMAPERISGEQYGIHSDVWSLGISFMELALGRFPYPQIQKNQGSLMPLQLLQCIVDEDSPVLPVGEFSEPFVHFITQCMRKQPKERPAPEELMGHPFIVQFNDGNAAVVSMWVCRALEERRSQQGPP
UniProt Q9NS73: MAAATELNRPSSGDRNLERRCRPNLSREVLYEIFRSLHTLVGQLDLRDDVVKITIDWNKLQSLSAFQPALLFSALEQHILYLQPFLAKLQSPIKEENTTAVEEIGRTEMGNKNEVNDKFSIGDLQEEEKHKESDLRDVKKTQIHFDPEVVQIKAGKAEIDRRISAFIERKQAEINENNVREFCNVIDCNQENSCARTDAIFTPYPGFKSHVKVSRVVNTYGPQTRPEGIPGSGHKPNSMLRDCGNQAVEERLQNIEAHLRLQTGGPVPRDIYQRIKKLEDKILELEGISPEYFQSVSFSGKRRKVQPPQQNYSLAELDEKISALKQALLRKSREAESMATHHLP
UniProt Q9Y546: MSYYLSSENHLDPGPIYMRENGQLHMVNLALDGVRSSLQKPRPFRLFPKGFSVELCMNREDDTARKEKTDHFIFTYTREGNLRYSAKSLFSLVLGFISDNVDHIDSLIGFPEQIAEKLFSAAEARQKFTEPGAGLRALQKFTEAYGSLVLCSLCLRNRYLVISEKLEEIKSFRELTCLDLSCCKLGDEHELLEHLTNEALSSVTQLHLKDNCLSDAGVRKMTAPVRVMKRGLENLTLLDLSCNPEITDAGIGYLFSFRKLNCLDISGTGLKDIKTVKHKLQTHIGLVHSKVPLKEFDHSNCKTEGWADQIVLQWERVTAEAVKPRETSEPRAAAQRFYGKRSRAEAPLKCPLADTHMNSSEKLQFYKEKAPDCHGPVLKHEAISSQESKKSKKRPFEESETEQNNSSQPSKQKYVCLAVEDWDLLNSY
UniProt Q9Y4Z0: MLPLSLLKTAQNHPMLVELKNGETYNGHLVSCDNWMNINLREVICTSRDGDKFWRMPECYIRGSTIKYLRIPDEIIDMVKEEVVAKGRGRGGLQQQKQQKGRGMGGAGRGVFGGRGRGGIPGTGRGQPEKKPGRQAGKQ
UniProt Q96GA3: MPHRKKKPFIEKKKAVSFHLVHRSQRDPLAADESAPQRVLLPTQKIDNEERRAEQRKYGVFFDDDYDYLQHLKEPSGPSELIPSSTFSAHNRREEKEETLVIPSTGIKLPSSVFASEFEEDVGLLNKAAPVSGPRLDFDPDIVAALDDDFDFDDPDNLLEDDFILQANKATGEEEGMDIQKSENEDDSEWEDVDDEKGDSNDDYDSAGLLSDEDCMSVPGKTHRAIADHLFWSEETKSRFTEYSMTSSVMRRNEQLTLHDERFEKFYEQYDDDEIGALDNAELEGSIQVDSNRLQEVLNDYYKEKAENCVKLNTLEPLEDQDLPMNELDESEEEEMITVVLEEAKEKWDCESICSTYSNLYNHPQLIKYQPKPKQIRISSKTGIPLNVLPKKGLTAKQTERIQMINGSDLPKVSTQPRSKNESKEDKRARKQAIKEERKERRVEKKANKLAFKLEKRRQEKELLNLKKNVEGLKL
UniProt Q9Y6D9: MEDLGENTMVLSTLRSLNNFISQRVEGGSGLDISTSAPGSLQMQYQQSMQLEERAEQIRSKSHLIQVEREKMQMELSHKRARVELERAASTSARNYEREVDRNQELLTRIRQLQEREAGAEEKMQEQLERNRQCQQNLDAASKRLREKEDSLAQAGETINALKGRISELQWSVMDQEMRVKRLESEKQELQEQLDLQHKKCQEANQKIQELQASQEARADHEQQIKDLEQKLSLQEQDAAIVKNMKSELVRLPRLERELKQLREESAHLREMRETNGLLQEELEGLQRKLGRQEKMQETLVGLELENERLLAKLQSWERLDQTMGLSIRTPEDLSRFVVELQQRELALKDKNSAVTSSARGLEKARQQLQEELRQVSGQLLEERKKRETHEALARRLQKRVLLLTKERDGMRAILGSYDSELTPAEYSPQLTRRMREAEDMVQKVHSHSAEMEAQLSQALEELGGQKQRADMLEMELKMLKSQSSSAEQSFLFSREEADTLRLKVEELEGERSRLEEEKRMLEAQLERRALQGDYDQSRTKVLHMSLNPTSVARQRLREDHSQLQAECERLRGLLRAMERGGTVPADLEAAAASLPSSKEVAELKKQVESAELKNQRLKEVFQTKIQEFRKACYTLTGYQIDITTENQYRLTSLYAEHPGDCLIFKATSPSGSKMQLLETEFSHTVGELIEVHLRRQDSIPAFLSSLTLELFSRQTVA
UniProt P49137, whole entry, looked up: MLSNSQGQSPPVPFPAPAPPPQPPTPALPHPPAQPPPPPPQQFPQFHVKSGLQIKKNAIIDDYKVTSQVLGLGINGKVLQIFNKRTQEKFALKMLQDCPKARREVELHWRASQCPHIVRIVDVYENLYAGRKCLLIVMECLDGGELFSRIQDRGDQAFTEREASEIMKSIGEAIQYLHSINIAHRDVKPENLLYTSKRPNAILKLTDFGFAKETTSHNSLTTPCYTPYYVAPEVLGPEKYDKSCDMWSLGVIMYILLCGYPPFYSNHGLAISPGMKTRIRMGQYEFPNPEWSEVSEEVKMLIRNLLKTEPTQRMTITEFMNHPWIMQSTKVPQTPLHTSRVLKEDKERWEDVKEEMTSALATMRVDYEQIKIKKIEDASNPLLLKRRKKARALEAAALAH
UniProt O95372: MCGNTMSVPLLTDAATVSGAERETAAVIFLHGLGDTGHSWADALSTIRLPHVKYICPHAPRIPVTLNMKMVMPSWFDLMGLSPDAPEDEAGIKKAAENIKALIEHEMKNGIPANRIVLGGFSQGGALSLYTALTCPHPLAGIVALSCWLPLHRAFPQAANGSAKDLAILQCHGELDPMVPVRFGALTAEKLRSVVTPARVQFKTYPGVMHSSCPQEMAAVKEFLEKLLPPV
UniProt P46734: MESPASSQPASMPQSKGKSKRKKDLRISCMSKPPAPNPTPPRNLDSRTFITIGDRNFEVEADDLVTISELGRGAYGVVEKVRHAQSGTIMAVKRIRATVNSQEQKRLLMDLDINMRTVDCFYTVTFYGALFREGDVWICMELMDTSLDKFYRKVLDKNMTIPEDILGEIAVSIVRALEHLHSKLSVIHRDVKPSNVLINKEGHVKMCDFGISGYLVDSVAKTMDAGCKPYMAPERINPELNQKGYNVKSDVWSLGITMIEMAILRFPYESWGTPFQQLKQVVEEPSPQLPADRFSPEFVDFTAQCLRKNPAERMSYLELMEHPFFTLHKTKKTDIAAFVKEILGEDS

How the values were obtained:
[1] = compound: ClCC(=O)N[C@@H]1CCCc2ccccc12; assay: log2 mean competition ratio of IA-DTB cysteine labelling (DMSO/compound) (log2 ratio); higher = stronger cysteine engagement by compound; conditions: treatment time: 4 h, cell line lysate: HEK293T
Procedure: (§1)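 IA-DTB competitive cysteine chemoproteomics in HEK293T RIPA lysate. Lysates were treated with compound 29 or 30 at 50 or 200 µM for 4 h, then IA-DTB (500 µM, 1 h), trypsin-digested, NeutrAvidin-enriched and analysed by diaPASEF. Competition ratio = intensity DMSO / intensity compound (n=4 treated, n=64 DMSO); binding: mean log2 CR ≥ 1 and p ≤ 0.05 plus QC filters. Target is the cysteine site.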

[2] = compound: ClCC(=O)N[C@H]1CCCc2ccccc12; assay: as above; conditions: treatment time: 4 h, cell line lysate: HEK293T
Procedure: as §1

| Target | log2 mean competition ratio ([1]; 50 µM) | log2 mean competition ratio ([1]; 200 µM) | log2 mean competition ratio ([2]; 50 µM) | log2 mean competition ratio ([2]; 200 µM) |
| --- | --- | --- | --- | --- |
| LRRC41 C520 (UniProt Q15345) | 0.101 | 0.309 | – | – |
| MALT1 C91 (UniProt Q9UDY8) | -0.0531 | 0.211 | – | – |
| LYST C2168 (UniProt Q99698) | 0.235 | -0.125 | – | – |
| MAP3K20 C242 (UniProt Q9NYL2) | -0.222 | -0.142 | – | – |
| LYN C203 (UniProt P07948) | 0.245 | 0.203 | – | – |
| LRRC20 C32 (UniProt Q8TCA0) | -0.24 | 0.0715 | – | – |
| MAP1S C51 (UniProt Q66K74) | -0.327 | -0.0776 | – | – |
| MACF1 C2895 | -0.0987 | 0.364 | – | – |
| MCM6 C185 (UniProt Q14566) | 0.0559 | 0.205 | – | – |
| MACO1 C315 (UniProt Q8N5G2) | -0.424 | 0.399 | – | – |
| MACF1 C4206 | 0.0483 | -0.363 | – | – |
| LRRC1 C104 | 0.222 | 0.029 | – | – |
| MASTL C555 (UniProt Q96GX5) | -0.526 | -0.13 | – | – |
| MBNL3 C44 | -0.159 | -0.52 | – | – |
| MAP3K4 C218 (UniProt Q9Y6R4) | 0.131 | 0.218 | – | – |
| MAP3K21 C281 | 0.252 | -0.129 | – | – |
| MACROD1 C116 (UniProt Q9BQ69) | -0.0781 | -0.0695 | – | – |
| LUC7L2 C59 (UniProt Q9Y383) | -0.022 | 0.102 | – | – |
| LYAR C51 (UniProt Q9NX58) | -0.166 | 0.017 | – | – |
| MAP2K5 C109 (UniProt Q13163) | 0.278 | -0.251 | – | – |
| LRRC57 C82 (UniProt Q8N9N7) | -0.199 | -0.151 | – | – |
| MAP3K7 C527 (UniProt O43318) | 0.0177 | 0.568 | – | – |
| MCM10 C786 (UniProt Q7L590) | – | 0.0484 | – | – |
| MBTPS1 C849 (UniProt Q14703) | -0.289 | 0.0387 | – | – |
| MAP2K7 C260 (UniProt O14733) | -0.0119 | 0.315 | – | – |

| Target | log2 mean competition ratio ([1]; 50 µM) | log2 mean competition ratio ([1]; 200 µM) | log2 mean competition ratio ([2]; 50 µM) | log2 mean competition ratio ([2]; 200 µM) |
| --- | --- | --- | --- | --- |
| MBNL1 C43 | 0.00327 | 0.0547 | – | – |
| LRRC47 C367 (UniProt Q8N1G4) | -0.172 | -0.102 | – | – |
| MBTPS2 C358 (UniProt O43462) | -0.126 | 0.00369 | – | – |
| MAP3K20 C571 (UniProt Q9NYL2) | -0.191 | 0.172 | – | – |
| MBNL3 C180 | -0.188 | 0.323 | – | – |
| MARS1 C333 | -0.0179 | -0.273 | – | – |
| LRRC47 C224 (UniProt Q8N1G4) | 0.125 | -0.0378 | – | – |
| MAP7D2 C278 | 0.183 | 0.39 | – | – |
| MCM3AP C1189 (UniProt O60318) | -0.219 | 0.325 | – | – |
| LZTS2 C355 (UniProt Q9BRK4) | 0.0369 | 0.349 | – | – |
| MATR3 C552 (UniProt P43243) | -0.15 | -0.0755 | – | – |
| LRRFIP1 C805 (UniProt Q32MZ4) | -0.161 | 0.19 | – | – |
| MAPRE1 C228 (UniProt Q15691) | -0.513 | 0.388 | – | – |
| MBIP C243 (UniProt Q9NS73) | -0.12 | 0.108 | – | – |
| LRRC42 C373 (UniProt Q9Y546) | 0.181 | -0.293 | – | – |
| MAP2K6 C294 (UniProt P52564) | -0.124 | 0.0465 | – | – |
| MAP7D3 C521 (UniProt Q8IWC1) | 0.0363 | 0.00639 | – | – |
| MCTS1 C14 (UniProt Q9ULC4) | -0.185 | -0.13 | – | – |
| MACF1 C4388 | -0.149 | -0.114 | -0.0189 | -0.0739 |
| LTN1 C237 (UniProt O94822) | 0.296 | -0.188 | -0.157 | -0.215 |
| MCM3AP C1428 (UniProt O60318) | 0.157 | 0.3 | – | -0.182 |
| MARK2 C723 | 0.24 | -0.103 | -0.0301 | -0.212 |
| MALT1 C317 (UniProt Q9UDY8) | -0.469 | 0.386 | – | – |
| MCRS1 C84 (UniProt Q96EZ8) | 0.0582 | -0.109 | 0.0137 | -0.0333 |
| LSM4 C45 (UniProt Q9Y4Z0) | 0.0185 | 0.0437 | – | – |

| Target | log2 mean competition ratio ([1]; 50 µM) | log2 mean competition ratio ([1]; 200 µM) | log2 mean competition ratio ([2]; 50 µM) | log2 mean competition ratio ([2]; 200 µM) |
| --- | --- | --- | --- | --- |
| MCM2 C624 (UniProt P49736) | 0.385 | -0.336 | 0.435 | -0.307 |
| LTV1 C309 (UniProt Q96GA3) | -0.123 | -0.0409 | – | – |
| MAP3K6 C232 (UniProt O95382) | 0.299 | 0.198 | – | – |
| MCM5 C397 (UniProt P33992) | 0.416 | 0.0813 | 0.0553 | 0.063 |
| MAN2C1 C322 (UniProt Q9NTJ4) | 0.0873 | -0.0388 | – | 0.0966 |
| MAP1A C1086 (UniProt P78559) | -0.00329 | -0.447 | – | – |
| MAD1L1 C662 (UniProt Q9Y6D9) | 0.204 | 0.261 | – | – |
| MAP3K4 C61 (UniProt Q9Y6R4) | -0.278 | 0.359 | -0.117 | 0.77 |
| MCM3 C407 (UniProt P25205) | -0.159 | -0.0455 | – | – |
| MAPKAPK2 C98 (UniProt P49137) | -0.127 | -0.067 | – | – |
| LYPLA2 C56 (UniProt O95372) | 0.338 | -0.165 | 0.401 | -0.182 |
| MAP4K3 C555 (UniProt Q8IVH8) | 0.0568 | -0.115 | -0.376 | -0.172 |
| MAP2K3 C227 (UniProt P46734) | 0.485 | 0.326 | – | – |
| MAP3K4 C1322 (UniProt Q9Y6R4) | -0.0584 | -0.0351 | – | – |
| MAP3K20 C285 (UniProt Q9NYL2) | -0.359 | 0.0185 | – | – |
| MAP2K6 C38 (UniProt P52564) | 0.0773 | -0.0931 | – | – |
| MBD4 C324 (UniProt O95243) | 0.0715 | -0.0908 | – | – |
| MCF2L C580 | -0.136 | 0.264 | -0.169 | -0.0561 |
| LRRC40 C23 (UniProt Q9H9A6) | -0.0603 | 0.00373 | – | – |
| MACF1 C666 | 0.108 | -0.138 | – | – |
| MCMBP C239 (UniProt Q9BTE3) | -0.11 | -0.0356 | – | – |
| MAK16 C39 (UniProt Q9BXY0) | 0.159 | 0.145 | 0.0186 | 0.088 |
| LRRC4B C683 (UniProt Q9NT99) | 0.0761 | -0.0327 | – | – |

For reference, part of the list above.

| Target | log2 mean competition ratio ([1]; 50 µM) | log2 mean competition ratio ([1]; 200 µM) | log2 mean competition ratio ([2]; 50 µM) | log2 mean competition ratio ([2]; 200 µM) |
| --- | --- | --- | --- | --- |
| MAP1S C51 (UniProt Q66K74) | -0.327 | -0.0776 | – | – |
| MACF1 C2895 | -0.0987 | 0.364 | – | – |
| MCM6 C185 (UniProt Q14566) | 0.0559 | 0.205 | – | – |
| MACO1 C315 (UniProt Q8N5G2) | -0.424 | 0.399 | – | – |
| MACF1 C4206 | 0.0483 | -0.363 | – | – |
